According to PMC9335328:
No constants are given. Whether binding was seen depends on the method and setting. Binding seen in cells or lysates may run through a third protein. Binding can be weak; no strength is given.

The chains behind the UniProt entries cited, without tags or fusion partners. Where a name states a change or a piece, a line headed by the entry shows the natural chain unless it says otherwise.
UniProt P98161: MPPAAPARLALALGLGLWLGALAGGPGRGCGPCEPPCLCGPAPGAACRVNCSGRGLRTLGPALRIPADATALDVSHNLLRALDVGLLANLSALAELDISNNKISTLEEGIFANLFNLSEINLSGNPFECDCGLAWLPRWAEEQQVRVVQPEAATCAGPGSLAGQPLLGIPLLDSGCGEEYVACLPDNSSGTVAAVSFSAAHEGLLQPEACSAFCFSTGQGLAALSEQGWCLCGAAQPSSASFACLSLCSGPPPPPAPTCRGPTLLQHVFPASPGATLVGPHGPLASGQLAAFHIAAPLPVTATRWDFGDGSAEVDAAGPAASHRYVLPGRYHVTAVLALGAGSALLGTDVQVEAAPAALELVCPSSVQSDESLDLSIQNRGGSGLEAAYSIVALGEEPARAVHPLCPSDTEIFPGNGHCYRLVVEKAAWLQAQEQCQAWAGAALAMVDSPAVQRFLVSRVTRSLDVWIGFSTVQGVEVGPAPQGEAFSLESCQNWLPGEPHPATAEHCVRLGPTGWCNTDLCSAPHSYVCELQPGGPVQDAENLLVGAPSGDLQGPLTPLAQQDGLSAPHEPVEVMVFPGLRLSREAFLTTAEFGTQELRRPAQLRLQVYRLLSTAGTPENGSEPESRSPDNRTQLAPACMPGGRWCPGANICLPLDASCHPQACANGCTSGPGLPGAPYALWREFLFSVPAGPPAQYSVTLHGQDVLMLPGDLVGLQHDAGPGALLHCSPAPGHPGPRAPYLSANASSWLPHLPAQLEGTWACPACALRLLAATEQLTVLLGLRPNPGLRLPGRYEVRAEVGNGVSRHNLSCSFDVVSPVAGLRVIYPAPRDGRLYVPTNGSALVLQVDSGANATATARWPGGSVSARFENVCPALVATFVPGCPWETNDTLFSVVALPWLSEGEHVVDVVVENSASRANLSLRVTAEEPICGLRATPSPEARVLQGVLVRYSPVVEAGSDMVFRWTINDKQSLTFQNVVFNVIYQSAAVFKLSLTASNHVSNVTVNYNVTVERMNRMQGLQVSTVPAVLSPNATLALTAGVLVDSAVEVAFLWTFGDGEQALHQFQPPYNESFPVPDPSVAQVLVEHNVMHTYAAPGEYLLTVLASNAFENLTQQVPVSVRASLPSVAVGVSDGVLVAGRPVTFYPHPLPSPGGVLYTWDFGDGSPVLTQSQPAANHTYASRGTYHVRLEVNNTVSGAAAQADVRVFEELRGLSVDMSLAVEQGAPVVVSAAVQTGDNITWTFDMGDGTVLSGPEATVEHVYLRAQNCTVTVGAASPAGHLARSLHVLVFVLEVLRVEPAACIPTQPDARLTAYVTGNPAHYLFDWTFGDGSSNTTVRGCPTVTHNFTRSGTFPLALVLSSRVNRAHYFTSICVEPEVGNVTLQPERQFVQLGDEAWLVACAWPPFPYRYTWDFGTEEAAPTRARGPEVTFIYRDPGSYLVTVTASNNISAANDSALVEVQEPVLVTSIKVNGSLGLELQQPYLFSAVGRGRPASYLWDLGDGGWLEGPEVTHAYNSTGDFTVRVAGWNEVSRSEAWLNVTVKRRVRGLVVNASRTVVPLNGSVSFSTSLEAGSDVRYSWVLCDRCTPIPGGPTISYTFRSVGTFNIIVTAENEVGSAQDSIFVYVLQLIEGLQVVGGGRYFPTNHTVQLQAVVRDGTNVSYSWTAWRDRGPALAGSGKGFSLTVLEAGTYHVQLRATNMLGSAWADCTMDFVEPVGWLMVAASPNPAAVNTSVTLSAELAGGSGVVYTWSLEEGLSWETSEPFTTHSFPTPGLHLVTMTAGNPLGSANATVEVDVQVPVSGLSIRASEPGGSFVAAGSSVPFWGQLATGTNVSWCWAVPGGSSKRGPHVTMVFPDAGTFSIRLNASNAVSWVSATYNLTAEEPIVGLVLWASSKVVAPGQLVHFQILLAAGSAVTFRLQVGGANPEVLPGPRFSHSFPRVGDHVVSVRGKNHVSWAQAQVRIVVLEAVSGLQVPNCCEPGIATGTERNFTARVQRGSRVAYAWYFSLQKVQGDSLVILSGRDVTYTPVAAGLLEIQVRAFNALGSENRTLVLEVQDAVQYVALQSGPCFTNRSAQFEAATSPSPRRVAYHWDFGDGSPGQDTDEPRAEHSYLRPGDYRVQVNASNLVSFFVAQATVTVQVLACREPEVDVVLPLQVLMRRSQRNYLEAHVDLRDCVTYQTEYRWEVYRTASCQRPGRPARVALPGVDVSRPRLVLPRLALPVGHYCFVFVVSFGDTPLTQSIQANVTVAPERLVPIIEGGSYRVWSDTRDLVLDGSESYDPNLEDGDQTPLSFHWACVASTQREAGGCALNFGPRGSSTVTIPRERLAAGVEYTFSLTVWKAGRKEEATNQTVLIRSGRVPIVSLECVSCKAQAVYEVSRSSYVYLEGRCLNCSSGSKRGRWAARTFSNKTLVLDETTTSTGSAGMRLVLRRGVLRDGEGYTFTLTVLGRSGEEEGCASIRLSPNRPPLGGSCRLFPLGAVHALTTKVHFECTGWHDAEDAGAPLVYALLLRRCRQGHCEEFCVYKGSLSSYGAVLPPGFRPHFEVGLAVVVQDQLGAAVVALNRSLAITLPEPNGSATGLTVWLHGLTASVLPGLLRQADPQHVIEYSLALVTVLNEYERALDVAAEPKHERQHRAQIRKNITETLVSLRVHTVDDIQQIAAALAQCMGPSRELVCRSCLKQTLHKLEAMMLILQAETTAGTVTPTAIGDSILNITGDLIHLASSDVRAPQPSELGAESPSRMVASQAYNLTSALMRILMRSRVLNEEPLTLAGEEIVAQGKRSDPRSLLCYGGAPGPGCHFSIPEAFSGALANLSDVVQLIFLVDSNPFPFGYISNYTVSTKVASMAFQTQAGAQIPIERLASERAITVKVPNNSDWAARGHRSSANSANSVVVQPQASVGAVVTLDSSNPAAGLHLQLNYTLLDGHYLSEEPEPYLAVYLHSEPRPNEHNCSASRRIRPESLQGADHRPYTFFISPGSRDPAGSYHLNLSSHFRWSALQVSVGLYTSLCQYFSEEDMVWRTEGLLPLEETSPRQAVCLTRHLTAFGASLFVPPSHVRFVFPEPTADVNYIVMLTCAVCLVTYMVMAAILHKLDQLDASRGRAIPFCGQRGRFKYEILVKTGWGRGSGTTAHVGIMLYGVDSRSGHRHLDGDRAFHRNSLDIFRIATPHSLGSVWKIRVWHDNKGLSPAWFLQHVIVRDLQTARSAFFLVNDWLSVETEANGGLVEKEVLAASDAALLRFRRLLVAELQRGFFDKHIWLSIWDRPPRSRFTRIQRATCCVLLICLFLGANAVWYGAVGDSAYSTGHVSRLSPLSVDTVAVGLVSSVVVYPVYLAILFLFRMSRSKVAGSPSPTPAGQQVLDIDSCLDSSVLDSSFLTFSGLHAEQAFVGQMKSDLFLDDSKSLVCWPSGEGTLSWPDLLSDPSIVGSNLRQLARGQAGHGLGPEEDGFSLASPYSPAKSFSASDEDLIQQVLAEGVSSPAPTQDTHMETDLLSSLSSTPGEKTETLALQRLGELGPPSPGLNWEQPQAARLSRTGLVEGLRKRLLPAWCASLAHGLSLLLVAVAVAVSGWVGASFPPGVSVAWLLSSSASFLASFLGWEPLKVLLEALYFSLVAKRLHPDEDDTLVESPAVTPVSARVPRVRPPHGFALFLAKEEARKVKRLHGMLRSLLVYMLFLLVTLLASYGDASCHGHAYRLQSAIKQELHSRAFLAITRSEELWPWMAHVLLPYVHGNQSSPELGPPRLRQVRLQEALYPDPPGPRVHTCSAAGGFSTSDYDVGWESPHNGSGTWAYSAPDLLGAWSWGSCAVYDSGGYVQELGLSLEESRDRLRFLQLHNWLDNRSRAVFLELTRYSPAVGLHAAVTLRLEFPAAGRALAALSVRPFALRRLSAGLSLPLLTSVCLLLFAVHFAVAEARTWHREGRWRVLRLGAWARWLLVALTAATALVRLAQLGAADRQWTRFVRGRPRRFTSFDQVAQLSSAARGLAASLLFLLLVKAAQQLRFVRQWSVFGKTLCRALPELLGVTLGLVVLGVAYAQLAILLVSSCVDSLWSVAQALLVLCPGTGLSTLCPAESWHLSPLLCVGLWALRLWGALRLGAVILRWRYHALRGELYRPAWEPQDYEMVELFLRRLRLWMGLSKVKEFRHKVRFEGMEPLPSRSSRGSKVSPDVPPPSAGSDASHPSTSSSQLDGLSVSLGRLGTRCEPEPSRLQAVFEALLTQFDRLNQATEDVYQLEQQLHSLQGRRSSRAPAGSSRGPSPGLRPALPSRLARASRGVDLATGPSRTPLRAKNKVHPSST
UniProt P09217: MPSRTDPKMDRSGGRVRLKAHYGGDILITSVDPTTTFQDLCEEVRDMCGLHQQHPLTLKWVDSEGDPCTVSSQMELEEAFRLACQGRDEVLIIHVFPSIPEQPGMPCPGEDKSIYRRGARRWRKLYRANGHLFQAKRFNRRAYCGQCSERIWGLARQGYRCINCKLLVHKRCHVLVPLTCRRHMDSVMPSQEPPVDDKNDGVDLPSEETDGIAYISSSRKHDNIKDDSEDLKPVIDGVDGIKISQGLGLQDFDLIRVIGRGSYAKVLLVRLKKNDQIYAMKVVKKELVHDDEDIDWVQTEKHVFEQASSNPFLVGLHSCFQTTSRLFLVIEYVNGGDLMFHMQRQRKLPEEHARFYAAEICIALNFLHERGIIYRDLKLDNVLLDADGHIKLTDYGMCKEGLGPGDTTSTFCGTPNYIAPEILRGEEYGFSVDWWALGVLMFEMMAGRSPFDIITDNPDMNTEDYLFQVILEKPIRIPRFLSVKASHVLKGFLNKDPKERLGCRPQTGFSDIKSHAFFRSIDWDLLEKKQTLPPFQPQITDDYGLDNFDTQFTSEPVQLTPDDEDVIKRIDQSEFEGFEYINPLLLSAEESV

Target: C-terminal cytoplasmic PC1 tail with a C-terminal GST tag (PC1-p30-GST) (UniProt P98161)
Assay: pull-down; HEK293T cells co-transfected with PC1-p30-GST or GST and FLAG-PKCζ or myr-PKCζ-FLAG; lysates precipitated with glutathione-agarose, Western blot; lysis buffer 10 mM Tris-HCl pH 7.4, 150 mM NaCl, 1% Triton X-100, 4 °C, 1 h

FLAG-PKCζ (from UniProt P09217 1-592) (enzyme)
binding: binds
